In patent publication US7041131B2, “Bioengineered vascular graft support prostheses” (Organogenesis, Inc., priority 1998, dated 2006):
At least one structure is not confirmed: it was looked up by name or label, or the drawing left a doubt.

Assays:
[1] = system: tube supported vein grafts; assay: Isometric tension studies on rings of tube supported vein grafts; set-up: species or system New Zealand male white rabbits; conditions: rings from tube supported vein grafts
Description: (§1) Twenty-nine New Zealand male white rabbits underwent interposition bypass grafting of the right common carotid artery using the reversed ipsilateral jugular vein. In the experimental group (n=15), once the proximal anastomosis was performed, the vein was passed through a collagen tube having dimensions of 4 mm in diameter and 35 to 40 mm in length and the distal anastomosis was then completed. Leaks were repaired and the collagen tube was fashioned to completely cover the vein graft, including both anastomoses. Control animals (n=14) were treated identically but without tube support. […] Postoperatively, the flow rate and intraluminal pressure in vein grafts were measured on either day 3 or 28 (n=5 per group). […]
(§2) Vein grafts were sectioned into four 5 mm rings. […] In brief, following equilibration, the resting tension was adjusted in increments from 0.5 to 1.25 gms and the maximal response to a modified oxygenated Krebs solution containing 60 mM KCl, 66.7 mM NaCl, 1.2 mM MgCl2, 2.5 mM CaCl2, 15.4 mM NaHCO3, 1.2 mM KH2PO4 and 5.5 mM glucose was measured to establish a length-tension relationship. […] Relaxation responses to acetylcholine (10^−8 to 10^−4 M), an endothelium dependent agonist, and nitroprusside (10^−8 to 10^−4 M), an endothelium independent agonist, were assessed on rings precontracted with norepinephrine, at the concentration which produced 80% of maximal contraction. […]

control vein grafts = assay: Isometric tension studies on rings of control vein grafts; set-up: species or system New Zealand male white rabbits; conditions: control vein grafts precontracted with norepinephrine
Description: as §1, §2

SMILES: CC(=O)OCC[N+](C)(C)C [Acetylcholine, acetylcholine]
- Rings with dose-dependent relaxation [1]: 10 of 20
- Relaxation response (control vein grafts): did not relax
